PubChem BioAssay AID1458 (National Center for Advancing Translational Sciences (NCATS), 2008)
In all, about 210,000 compounds went through this assay and about 5,900 (2.8%) were called active. About 5% were inconclusive and are not listed. Calls follow the shape of the dose curve; as a rule, active = well fitted activation curve with a large enough effect; inconclusive = small, poorly fitted or top-dose-only effect; inactive = no such curve, though single readings can be large or run the other way. The entries are a selection whose mix differs from that of the whole data set. Entries without a call were filed so in the source.

Experiment: qHTS Assay for Enhancers of SMN2 Splice Variant Expression; also: nearly all actives have a fitted effect of over 55% in size; as to activity change, positive = activation: % of control where 0% means no effect
Conditions: HEK293 SMN2-luciferase splicing reporter, luminescence, 30-36 h; activity change, positive = activation: at 46.1 µM (top of the series) unless noted
In short: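 HEK293 cells carry an SMN2 […]–luciferase reporter in which exon 7 inclusion puts luciferase in frame. Cells were plated 10-12 h before compound addition, then incubated 30-36 h at 37C. ONE-Glo luminescence was read; sodium butyrate at 4.5 mM final served as control.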
Potency is read from the fitted curve at half-maximal effect.

Row | Structure (SMILES) | activity change, positive = activation | Potency
1 | Cn1c(=O)n(CC(=O)O)c(=O)c2c1nc1n2CCS1 | 47.5% | –
2 | CC(C)N1C/C(=C/c2ccsc2)C(=O)/C(=C/c2ccsc2)C1 | inactive: -77.7% | –
3 | CSc1nsc(NC(=O)Cc2ccccc2)n1 | -65.3% | –
4 | CCn1c(O)c(N=NC(=O)c2cccc(S(=O)(=O)N3CCCCC3)c2)c2ccccc21 | -69.1% | –
5 | O=C(O)C1CCCN1c1ncccn1 (stereo not drawn) | 38.6% | –
6 | CCOC(=O)N1CCN(C(=O)NC23CC4CC(CC(C4)C2)C3)CC1 | 30.9% | –
7 | Cc1cccc(-n2ncc3c(N4CCOCC4)ncnc32)c1 | inactive: -67.7% | –
8 | Cc1ccc(S(=O)(=O)CCc2nnc(NC(=O)c3cnccn3)s2)cc1 | 35.3% | –
9 | CCS(=O)(=O)N1CCC(C(=O)NCCCOC)CC1 | 38.2% | –
10 | Cc1ccccc1OCCn1cc(C(=O)C2CCCCC2)c2ccccc21 | 51% | –
11 | CCCCN(C)CC(O)Cn1cc(/C=C/C(=O)c2cccs2)c2ccccc21 (stereo not drawn) | -93.4% | –
12 | CC(=O)n1cc(C(C[N+](=O)[O-])SCCN)c2ccccc21 (stereo not drawn) | -89.5% | –
13 | CC(C)(C)c1ccc(-c2noc(CCC(=O)NCC3CCCO3)n2)cc1 (stereo not drawn) | inactive: -58% | –
14 | Cc1cccnc1Nc1nc(-c2ccccn2)cs1 | -37.4% | –
15 | CS(=O)(=O)Nc1ccc(Cc2ccc(NS(C)(=O)=O)cc2)cc1 | inactive: -42.8% | –
16 | Cc1cc(/C=C2\SC(=S)N(Cc3ccco3)C2=O)c(C)n1-c1ccccc1 | -63.7% | –
17 | CCCCOCCCNc1ncnc2c1[nH]c1ccccc12 | inactive: -83.1% | –
18 | CN(c1cccc(NC(=O)Cc2ccccc2)c1)S(C)(=O)=O | 23.7% | –
19 | CCOc1ccc(NC(c2ccccn2)c2oc(CO)cc(=O)c2O)cc1 (stereo not drawn) | 95.3% | –
20 | CCCN1C/C(=C/c2cccc([N+](=O)[O-])c2)C(=O)/C(=C/c2cccc([N+](=O)[O-])c2)C1 | -65.2% | –
21 | CCCc1nnc(SCC(=O)Nc2ccc(OC)cc2)n1N | 31.3% | –
22 | O=C(c1ccc(F)cc1)c1cnc(Nc2ccccc2)s1 | 158% | –
23 | Cc1ccc2nc(COc3ccc(Cl)cc3)cc(=O)n2c1 | – | active: 12.6 µM
24 | CCN(C(=O)COC(=O)/C=C/c1c(C)nn(Cc2ccc(C)cc2)c1C)C1CCS(=O)(=O)C1 (stereo not drawn) | inactive: -34.9% | –
25 | C/C(=N\NC(=O)c1cc(C(C)C)[nH]n1)c1ccco1 | – | active: 2.82 µM
26 | COc1ccc(CNCCc2ccc(Cl)cc2)cc1OCc1ccccc1 | inactive: -54.1% | –
27 | COc1cc(NC(=O)c2ccco2)c(OC)cc1NC(=O)Nc1ccccc1Cl | -5.75% | –

Row | Structure (SMILES) | activity change, positive = activation | Potency
28 | Cc1cc(OC(=O)c2ccc(S(=O)(=O)N(C)C)cc2)cc(=O)o1 | 41.3% | –
29 | Brc1ccc2nc(N3CCCC3)sc2c1 | 37.1% | –
30 | CCN1CCCC1CNc1ncnc2c1[nH]c1ccc(F)cc12 (stereo not drawn) | 30.4% | –
31 | CC1(C)CC(=O)CC(C)(C)N1OC(=O)c1ccncc1 | 33.9% | –
32 | COC(=O)c1c(NC(=O)CCCOc2ccc(C)cc2)sc2c1C(C(=O)OC)CC2 (stereo not drawn) | inactive: -50.4% | –
33 | CC(=O)c1ccc(N2CCN(C(C)C(=O)NC3CCCc4ccccc43)CC2)cc1 (stereo not drawn) | inactive: -32.9% | –
34 | CCOc1ccc(OCC)c(S(=O)(=O)N2CCN(c3cccc(C)c3C)CC2)c1 | inactive: -30.2% | –
35 | Cc1ccc(C(=O)NCCNc2ccc([N+](=O)[O-])cc2C(F)(F)F)cc1 | -58.6% | –
36 | O=C(NC(=S)Nc1ccc(S(=O)(=O)N2CCCC2)cc1)C1CCC1 | 30.3% | –
37 | Nc1n[nH]c(N)c1N=Nc1ccc(Cl)cc1Cl | 65% | –
38 | O=C(Nc1ccc2c(c1)OCO2)c1noc2c1CCCCC2 | – | active: 5.62 µM
39 | Cc1c(Cl)cn2c(=O)cc(CN3CCN(c4ccc(F)cc4)CC3)nc2c1Cl | -90.1% | –
40 | CC(=O)c1c(N2CCN(c3cccc(Cl)c3)CC2)nc(=S)n(-c2ccccc2)c1C | 42.7% | –
41 | Nc1cc(-c2ccc(Br)cc2)nc2cc(-c3ccccc3)nn12 | inactive: -24.9% | –
42 | CCc1ccc(C(=O)COC(=O)C(Cc2c[nH]c3ccccc23)NC(=O)c2ccc(Br)cc2)cc1 (stereo not drawn) | 14.8% | –
43 | CC(=O)OCC(=O)[C@@]1(O)[C@H](C)C[C@@H]2[C@H]3CCC4=CC(=O)C=C[C@]4(C)[C@]3(F)[C@@H](O)C[C@@]21C | inactive: -1.6% [at 20.6 µM] | –
44 | CC1CN(S(=O)(=O)c2ccc(C(=O)NCCCn3ccnc3)cc2)CC(C)O1 (stereo not drawn) | inactive: -49.8% | –
45 | CCN(CC)CCNC(C(=O)Nc1cccc(C(C)=O)c1)c1ccccc1 (stereo not drawn) | 50% | –
46 | COc1ccccc1N1CCN(C(=O)c2cn(-c3ccccc3)nc2-c2cccnc2)CC1 | – | active: 22.4 µM
47 | COc1cccc(-c2nc(CSCC(=O)NCCc3ccc(Cl)cc3)c(C)o2)c1 | inactive: -41.5% | –
48 | COc1cc(/C=N/NC(=O)c2ccc3ccccc3c2)ccc1Oc1ccc([N+](=O)[O-])cn1 | inactive: -33.9% | –
49 | Cn1cnnc1SCc1ccc(F)c2ccccc12 | 40.5% | –
50 | CCn1c(SCC(=O)Nc2nccs2)nnc1-c1ccc(S(=O)(=O)N2CCCCC2)cc1 | -47.4% | –
51 | CCN1CCN(c2ccc(NC(=O)c3cccc4ncccc34)cc2)CC1 | 35.1% | –
52 | Cc1cc(C)n2c3c(c(C#N)c2n1)CCCC3 | 29.2% | –
53 | CS(=O)(=O)N(CC(=O)N1CCOCC1)c1ccc2c(c1)OCO2 | 39.6% | –

2 entries drawn at random from those above, as already listed:
Row | Structure (SMILES) | activity change, positive = activation | Potency
50 | CCn1c(SCC(=O)Nc2nccs2)nnc1-c1ccc(S(=O)(=O)N2CCCCC2)cc1 | -47.4% | –
35 | Cc1ccc(C(=O)NCCNc2ccc([N+](=O)[O-])cc2C(F)(F)F)cc1 | -58.6% | –
